These results are taken from doi:10.1101/2024.02.13.580115.

Read-outs that look alike come from different tables or passages of the source. These are yes or no findings as the source states them, for the method shown. Binding can be weak; no strength is given.

Assay [1] addresses Schizophyllum commune WC-2 fused to the GAL4 binding domain (Schizophyllum commune H4-8). Description: two-hybrid.
The target is the same in assay [2]. Description: two-hybrid. This is another data set of the same source.

With “Schizophyllum commune WC-1 fused to the GAL4 activating domain (from UniProt A0ACF2F142)”, the binding result in assay [1] and in assay [2] was “binds” each time.
